System: poor lung function induced by porcine pancreatic elastase
Experiment: Test Example 3: FEV0.05/FVC in poor lung function induced by porcine pancreatic elastase, compared with muscarinic antagonists
Format: in vivo, ICR mice
Conditions: 38 μg/kg by airway administration once daily for 11 days, measured on Day 14 (FIG. 10)
Description: Measurement of a ratio of forced expiratory volume (FEV) in the first 0.05 seconds to forced vital capacity (FVC) (FEV0.05/FVC) was performed by using the above-mentioned computer-controlled small animal ventilator connected to a negative pressure reservoir (SCIREQ Scientific Respiratory Equipment Inc.). FEV0.05/PVC was determined by using the FlexiVent software. As with Test Example 1, 4 to 6 week old ICR mice were treated with porcine pancreatic elastase. […] On Day 14, FEV0.05/FVC was measured by the method described in the above-mentioned “Measurement of FEV0.05/FVC.”

SMILES | recovering effect of vital capacity represented by FEV0.05/FVC reduced by PPE administration
CC(C)[N+]1(C)[C@@H]2CC[C@H]1C[C@@H](OC(=O)C(CO)c1ccccc1)C2 (some centres unmarked) [ipratropium] | did not show a significant recovering effect
CN1[C@@H]2C[C@@H](OC(=O)[C@H](CO)c3ccccc3)C[C@H]1[C@@H]1O[C@@H]12 [scopolamine] | did not show a significant recovering effect

Source: US9539248B2, “Agent for ameliorating chronic obstructive pulmonary disease” (LTT BIO-PHARMA CO., LTD., priority 2012, dated 2017)
